Experimental data published in PMC6158257.
These are yes or no findings as the source states them, for the method shown. Binding seen in cells or lysates may run through a third protein. Here binding means that the protein was enriched with, or labelled near, the bait; the list need not be complete.

The chains behind the UniProt entries cited, without tags or fusion partners.
UniProt P35579: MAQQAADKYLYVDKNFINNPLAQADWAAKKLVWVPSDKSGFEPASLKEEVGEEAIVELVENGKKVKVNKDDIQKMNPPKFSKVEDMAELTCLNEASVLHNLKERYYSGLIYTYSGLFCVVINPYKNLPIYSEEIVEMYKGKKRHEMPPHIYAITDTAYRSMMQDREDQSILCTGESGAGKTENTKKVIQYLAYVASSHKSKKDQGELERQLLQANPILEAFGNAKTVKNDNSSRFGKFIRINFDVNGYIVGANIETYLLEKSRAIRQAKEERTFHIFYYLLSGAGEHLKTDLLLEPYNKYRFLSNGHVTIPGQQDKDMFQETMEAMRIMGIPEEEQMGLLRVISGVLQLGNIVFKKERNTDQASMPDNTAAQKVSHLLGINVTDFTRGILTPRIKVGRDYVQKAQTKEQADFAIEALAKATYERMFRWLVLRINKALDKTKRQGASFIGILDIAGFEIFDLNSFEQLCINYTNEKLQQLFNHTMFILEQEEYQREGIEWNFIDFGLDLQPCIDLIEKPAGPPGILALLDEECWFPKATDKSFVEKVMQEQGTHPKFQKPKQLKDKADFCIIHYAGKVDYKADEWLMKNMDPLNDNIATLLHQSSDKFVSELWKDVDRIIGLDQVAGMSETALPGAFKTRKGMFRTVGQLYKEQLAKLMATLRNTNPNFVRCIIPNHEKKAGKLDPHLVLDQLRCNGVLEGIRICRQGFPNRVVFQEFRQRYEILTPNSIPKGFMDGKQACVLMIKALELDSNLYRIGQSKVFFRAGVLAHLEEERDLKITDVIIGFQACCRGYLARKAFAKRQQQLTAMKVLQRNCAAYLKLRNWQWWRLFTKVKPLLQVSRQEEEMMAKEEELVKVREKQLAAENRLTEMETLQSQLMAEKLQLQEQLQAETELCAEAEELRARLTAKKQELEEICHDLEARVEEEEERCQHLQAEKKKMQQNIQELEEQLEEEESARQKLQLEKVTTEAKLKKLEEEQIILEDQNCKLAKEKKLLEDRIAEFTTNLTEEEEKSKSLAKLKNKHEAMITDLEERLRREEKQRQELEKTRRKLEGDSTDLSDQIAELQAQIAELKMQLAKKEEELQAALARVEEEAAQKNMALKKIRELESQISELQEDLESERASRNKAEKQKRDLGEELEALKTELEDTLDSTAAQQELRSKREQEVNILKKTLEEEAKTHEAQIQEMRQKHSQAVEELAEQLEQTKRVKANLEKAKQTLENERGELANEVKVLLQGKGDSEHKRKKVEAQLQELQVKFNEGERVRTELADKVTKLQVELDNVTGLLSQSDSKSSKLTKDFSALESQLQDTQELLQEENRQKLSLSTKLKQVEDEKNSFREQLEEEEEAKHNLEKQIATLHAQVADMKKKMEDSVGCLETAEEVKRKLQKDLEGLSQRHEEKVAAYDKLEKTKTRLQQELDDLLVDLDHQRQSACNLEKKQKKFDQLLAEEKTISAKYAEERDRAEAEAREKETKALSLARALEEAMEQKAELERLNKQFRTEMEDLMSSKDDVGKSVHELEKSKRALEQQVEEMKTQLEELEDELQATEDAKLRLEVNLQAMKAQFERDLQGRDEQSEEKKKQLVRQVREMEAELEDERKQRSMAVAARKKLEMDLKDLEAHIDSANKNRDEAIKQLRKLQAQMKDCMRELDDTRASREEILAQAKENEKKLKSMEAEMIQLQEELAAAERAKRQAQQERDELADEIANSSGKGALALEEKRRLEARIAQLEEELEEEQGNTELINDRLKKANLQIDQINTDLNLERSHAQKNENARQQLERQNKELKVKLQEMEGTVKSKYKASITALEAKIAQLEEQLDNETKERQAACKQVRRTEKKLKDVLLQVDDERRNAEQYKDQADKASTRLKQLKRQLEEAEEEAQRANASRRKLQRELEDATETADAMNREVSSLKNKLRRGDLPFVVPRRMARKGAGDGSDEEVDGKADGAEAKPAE
UniProt P35580: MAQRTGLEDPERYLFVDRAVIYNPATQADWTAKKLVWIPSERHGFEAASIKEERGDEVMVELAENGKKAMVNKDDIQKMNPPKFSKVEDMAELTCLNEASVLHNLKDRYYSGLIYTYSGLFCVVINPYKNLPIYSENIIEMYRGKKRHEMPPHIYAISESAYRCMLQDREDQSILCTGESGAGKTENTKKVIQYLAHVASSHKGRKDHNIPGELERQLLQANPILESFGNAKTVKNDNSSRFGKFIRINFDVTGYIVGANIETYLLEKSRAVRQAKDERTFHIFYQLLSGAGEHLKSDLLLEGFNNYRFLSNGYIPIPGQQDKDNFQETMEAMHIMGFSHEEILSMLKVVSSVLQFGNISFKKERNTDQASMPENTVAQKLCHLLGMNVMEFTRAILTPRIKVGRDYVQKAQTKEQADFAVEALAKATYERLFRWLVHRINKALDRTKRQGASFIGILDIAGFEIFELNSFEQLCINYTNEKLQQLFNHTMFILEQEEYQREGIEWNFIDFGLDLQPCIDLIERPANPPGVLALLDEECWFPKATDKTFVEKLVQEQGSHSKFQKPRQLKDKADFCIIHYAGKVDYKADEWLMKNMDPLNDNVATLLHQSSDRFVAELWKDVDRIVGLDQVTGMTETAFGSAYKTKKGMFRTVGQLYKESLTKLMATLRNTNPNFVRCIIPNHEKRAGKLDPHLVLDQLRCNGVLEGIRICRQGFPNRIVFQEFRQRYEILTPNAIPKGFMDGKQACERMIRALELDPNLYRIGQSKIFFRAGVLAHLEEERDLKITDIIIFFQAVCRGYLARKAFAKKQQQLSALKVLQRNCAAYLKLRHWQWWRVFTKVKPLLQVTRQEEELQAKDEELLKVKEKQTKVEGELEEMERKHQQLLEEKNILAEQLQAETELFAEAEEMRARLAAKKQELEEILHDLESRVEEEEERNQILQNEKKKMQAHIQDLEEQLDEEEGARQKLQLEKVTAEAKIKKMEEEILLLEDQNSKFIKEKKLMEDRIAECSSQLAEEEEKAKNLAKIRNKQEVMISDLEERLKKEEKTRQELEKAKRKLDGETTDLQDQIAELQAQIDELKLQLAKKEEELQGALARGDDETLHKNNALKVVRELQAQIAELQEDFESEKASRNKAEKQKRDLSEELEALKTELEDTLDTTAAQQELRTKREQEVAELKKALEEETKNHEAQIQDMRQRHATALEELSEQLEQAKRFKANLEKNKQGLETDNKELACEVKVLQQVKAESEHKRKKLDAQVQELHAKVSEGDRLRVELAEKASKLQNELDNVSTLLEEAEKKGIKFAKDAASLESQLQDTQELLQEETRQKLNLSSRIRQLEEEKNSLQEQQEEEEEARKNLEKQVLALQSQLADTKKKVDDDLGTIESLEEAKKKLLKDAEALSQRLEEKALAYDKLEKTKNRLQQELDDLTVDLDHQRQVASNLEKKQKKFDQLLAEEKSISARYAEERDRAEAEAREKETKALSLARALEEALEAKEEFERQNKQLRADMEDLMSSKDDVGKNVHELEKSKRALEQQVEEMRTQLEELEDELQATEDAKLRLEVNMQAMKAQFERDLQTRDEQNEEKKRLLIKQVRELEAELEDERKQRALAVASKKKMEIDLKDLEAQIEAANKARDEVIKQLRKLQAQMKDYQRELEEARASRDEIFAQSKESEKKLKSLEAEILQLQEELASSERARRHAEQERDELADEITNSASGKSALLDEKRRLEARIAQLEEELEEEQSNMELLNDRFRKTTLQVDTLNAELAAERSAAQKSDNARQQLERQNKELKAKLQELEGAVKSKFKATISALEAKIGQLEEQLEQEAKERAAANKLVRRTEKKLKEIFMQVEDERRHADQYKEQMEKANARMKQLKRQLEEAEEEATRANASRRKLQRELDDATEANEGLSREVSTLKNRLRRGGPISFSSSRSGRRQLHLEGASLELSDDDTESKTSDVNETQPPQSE
UniProt P38159: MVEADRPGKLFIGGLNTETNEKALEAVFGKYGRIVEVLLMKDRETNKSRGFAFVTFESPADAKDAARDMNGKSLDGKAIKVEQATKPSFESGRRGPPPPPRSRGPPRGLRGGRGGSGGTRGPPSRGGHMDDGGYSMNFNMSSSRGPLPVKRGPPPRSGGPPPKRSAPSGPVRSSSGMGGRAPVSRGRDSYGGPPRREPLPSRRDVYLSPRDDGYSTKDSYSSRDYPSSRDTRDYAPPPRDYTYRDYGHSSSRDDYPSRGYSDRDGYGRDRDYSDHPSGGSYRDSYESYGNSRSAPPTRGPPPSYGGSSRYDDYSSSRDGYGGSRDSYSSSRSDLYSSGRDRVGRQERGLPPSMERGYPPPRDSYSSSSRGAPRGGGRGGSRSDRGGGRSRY

B1: ERCC1 (endogenous) (protein, UniProt P07992 1-297)
chain: MDPGKDKEGVPQPSGPPARKKFVIPLDEDEVPPGVAKPLFRSTQSLPTVDTSAQAAPQTYAEYAISQPLEGAGATCPTGSEPLAGETPNQALKPGAKSNSIIVSPRQRGNPVLKFVRNVPWEFGDVIPDYVLGQSTCALFLSLRYHNLHPDYIHGRLQSLGKNFALRVLLVQVDVKDPQQALKELAKMCILADCTLILAWSPEEAGRYLETYKAYEQKPADLLMEKLEQDFVSRVTECLTTVKSVNKTDSQTLLTTFGSLEQLIAASREDLALCPGLGPQKARRLFDVLHEPFLKVP
B2: XPF (endogenous) (protein, UniProt Q92889 1-916)
chain: MESGQPARRIAMAPLLEYERQLVLELLDTDGLVVCARGLGADRLLYHFLQLHCHPACLVLVLNTQPAEEEYFINQLKIEGVEHLPRRVTNEITSNSRYEVYTQGGVIFATSRILVVDFLTDRIPSDLITGILVYRAHRIIESCQEAFILRLFRQKNKRGFIKAFTDNAVAFDTGFCHVERVMRNLFVRKLYLWPRFHVAVNSFLEQHKPEVVEIHVSMTPTMLAIQTAILDILNACLKELKCHNPSLEVEDLSLENAIGKPFDKTIRHYLDPLWHQLGAKTKSLVQDLKILRTLLQYLSQYDCVTFLNLLESLRATEKAFGQNSGWLFLDSSTSMFINARARVYHLPDAKMSKKEKISEKMEIKEGEETKKELVLESNPKWEALTEVLKEIEAENKESEALGGPGQVLICASDDRTCSQLRDYITLGAEAFLLRLYRKTFEKDSKAEEVWMKFRKEDSSKRIRKSHKRPKDPQNKERASTKERTLKKKKRKLTLTQMVGKPEELEEEGDVEEGYRREISSSPESCPEEIKHEEFDVNLSSDAAFGILKEPLTIIHPLLGCSDPYALTRVLHEVEPRYVVLYDAELTFVRQLEIYRASRPGKPLRVYFLIYGGSTEEQRYLTALRKEKEAFEKLIREKASMVVPEEREGRDETNLDLVRGTASADVSTDTRKAGGQEQNGTQQSIVVDMREFRSELPSLIHRRGIDIEPVTLEVGDYILTPEMCVERKSISDLIGSLNNGRLYSQCISMSRYYKRPVLLIEFDPSKPFSLTSRGALFQEISSNDISSKLTLLTLHFPRLRILWCPSPHATAELFEELKQSKPQPDAATALAITADSETLPESEKYNPGPQDFLLKMPGVNAKNCRSLMHHVKNIAELAALSQDELTSILGNAANAKQLYDFIHTSFAEVVSKGKGKK

Molecular target: T1, USP45 (endogenous) (human (endogenous in KBM7, U2OS, HEK293)) (UniProt Q70EL2)
T1 sequence: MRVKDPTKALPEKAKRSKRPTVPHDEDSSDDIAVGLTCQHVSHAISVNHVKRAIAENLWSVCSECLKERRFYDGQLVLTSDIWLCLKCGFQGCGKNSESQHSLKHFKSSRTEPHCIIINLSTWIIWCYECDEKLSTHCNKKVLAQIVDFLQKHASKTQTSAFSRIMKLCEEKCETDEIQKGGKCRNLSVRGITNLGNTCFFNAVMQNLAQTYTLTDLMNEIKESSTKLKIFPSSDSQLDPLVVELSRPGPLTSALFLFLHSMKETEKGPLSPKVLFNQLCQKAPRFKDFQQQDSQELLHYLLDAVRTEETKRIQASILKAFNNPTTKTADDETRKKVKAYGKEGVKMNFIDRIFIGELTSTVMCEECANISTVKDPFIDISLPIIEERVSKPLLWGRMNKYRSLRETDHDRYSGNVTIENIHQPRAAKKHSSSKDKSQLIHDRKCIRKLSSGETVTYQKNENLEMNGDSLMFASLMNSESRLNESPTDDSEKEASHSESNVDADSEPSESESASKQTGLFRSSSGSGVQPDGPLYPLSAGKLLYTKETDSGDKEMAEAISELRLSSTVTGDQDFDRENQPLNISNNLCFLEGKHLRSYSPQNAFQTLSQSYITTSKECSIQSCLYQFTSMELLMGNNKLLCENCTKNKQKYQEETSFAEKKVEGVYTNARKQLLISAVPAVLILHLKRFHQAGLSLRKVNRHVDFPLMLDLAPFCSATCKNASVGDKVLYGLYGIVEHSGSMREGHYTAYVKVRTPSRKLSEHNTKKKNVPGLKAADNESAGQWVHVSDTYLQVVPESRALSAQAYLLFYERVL
Test: affinity purification with mass spectrometry; endogenous USP45 immunoprecipitated with anti-USP45 antibody coupled to protein G-Sepharose from 50 mg lysate of WT or USP45 KO KBM7 and U2OS cells; washes with 0.5 M NaCl; gel sections analysed by LC-MS

Row | Molecule | binding
1 | MYH9 (endogenous) (from UniProt P35579 1-1960) | binds
2 | MYH10 (endogenous) (from UniProt P35580 1-1976) | binds
3 | RBMX (endogenous) (from UniProt P38159 1-391) | binds
4 | B1 | binds
5 | B2 | binds
